One data set has as its target CD133 on A549 cells (UniProt O43490). Kind of data set: confocal fluorescence imaging of cells. As to conditions: 8 h, sensor annealed from 95 °C to room temperature, binding buffer, protein on the cell surface.
Another data set deals with CD44. Kind of data set: competition (FRET turn-on displacement of AuNPs-ssRNA). The conditions noted are these: 2 uM protein; 5'-NH2 on aptamer; 5'-SH on ssRNA; QD-aptamers redispersed in PBS; sensor annealed from 95 °C to room temperature; binding buffer.
Another data set concerns actin. The data set is described as above. As to conditions: 2 uM protein; 5'-NH2 on aptamer; 5'-SH on ssRNA; QD-aptamers redispersed in PBS; sensor annealed from 95 °C to room temperature; binding buffer.
In another data set the test system is SCC. The description is as above. As to conditions: 2 uM protein, recovery around 5% vs 68% for CD133; 5'-NH2 on aptamer; 5'-SH on ssRNA; QD-aptamers redispersed in PBS; sensor annealed from 95 °C to room temperature; binding buffer.
A further data set concerns PIN 5. The description is as above. As to conditions: 2 uM protein; 5'-NH2 on aptamer; 5'-SH on ssRNA; QD-aptamers redispersed in PBS; sensor annealed from 95 °C to room temperature; binding buffer.

Protein sequences, listed by entry. Tags and fused reporters are not part of them. Residues count along the entry.
UniProt O43490, 21-865: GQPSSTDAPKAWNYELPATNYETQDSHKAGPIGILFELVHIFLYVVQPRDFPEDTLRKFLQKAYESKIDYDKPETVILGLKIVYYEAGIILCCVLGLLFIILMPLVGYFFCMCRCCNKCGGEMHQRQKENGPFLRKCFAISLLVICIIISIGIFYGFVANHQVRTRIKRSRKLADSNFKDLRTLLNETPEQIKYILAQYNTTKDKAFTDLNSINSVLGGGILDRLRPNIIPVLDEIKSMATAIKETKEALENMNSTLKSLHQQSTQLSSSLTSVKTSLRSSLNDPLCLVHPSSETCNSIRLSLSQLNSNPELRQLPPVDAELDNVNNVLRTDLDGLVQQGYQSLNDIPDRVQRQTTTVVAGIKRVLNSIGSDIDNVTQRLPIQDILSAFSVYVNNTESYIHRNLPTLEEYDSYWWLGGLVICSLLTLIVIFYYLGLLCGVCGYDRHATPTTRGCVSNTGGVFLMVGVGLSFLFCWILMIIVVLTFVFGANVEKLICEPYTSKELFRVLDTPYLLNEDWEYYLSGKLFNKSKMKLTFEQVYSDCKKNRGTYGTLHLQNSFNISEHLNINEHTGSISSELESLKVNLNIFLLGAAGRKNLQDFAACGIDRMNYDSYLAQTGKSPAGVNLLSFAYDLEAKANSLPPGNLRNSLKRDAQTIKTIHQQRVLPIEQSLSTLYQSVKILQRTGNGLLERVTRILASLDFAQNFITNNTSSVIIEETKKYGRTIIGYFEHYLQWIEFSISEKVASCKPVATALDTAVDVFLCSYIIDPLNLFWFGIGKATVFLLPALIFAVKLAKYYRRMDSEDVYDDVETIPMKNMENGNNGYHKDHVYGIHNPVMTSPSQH

Construct, isoform or probe ends are uncertain for at least one entry. For part of these data: Negatives hold for the conditions tested. For part of these data: At least one result comes from cells or an extract, where the contact may be indirect. For part of these data: At least one verdict rests on a figure or table, not on a statement of the authors.

“CCCUCCUACAUAGGG / CCCUAUG [CD133 aptamer sensor (QD-aptamer hybridized to AuNPs-ssRNA)]”: the binding result is “binds” with CD133 on A549 cells (blocked by free aptamer pretreatment, no signal on CD133-negative HuH-7, 5'-NH2 on aptamer, 5'-SH on ssRNA, QD-aptamers redispersed in PBS); “no binding” with CD44; “no binding” in the data set on actin; “no binding” in the data set on SCC; “no binding” in the data set with PIN 5.

Consider CCCUCCUACAUAGGG [QD-CD133 aptamer], for which the binding result with CD133 on A549 cells (QDs without aptamer gave weak signal, 5'-NH2, QD-aptamers redispersed in PBS, label: CdSe/ZnS QD at 5' end) is on record as “binds”.
